Laboratory results reported in article PMC4202265.

Chains of the proteins cited; added tags and fusions are not shown. Lines headed by an entry give the natural chain unless they say otherwise; changes in a name come on top. Residues count along the entry.
UniProt P60033: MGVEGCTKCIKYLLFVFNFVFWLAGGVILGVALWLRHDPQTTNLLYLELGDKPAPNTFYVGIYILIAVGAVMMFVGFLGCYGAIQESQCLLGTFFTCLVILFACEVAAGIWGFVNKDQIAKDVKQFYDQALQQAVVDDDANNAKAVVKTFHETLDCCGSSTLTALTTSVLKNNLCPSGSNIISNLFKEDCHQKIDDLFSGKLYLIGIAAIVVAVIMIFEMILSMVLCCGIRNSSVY
UniProt O92972, residues 384-746: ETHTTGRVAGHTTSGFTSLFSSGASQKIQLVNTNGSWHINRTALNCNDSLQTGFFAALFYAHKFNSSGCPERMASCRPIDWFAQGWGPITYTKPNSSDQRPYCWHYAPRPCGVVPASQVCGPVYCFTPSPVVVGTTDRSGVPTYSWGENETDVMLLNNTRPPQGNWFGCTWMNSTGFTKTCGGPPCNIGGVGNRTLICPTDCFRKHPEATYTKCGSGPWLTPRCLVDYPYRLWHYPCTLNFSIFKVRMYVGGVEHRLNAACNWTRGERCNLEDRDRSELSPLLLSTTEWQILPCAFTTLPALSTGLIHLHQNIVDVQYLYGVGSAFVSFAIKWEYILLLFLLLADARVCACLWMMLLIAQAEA

Molecular target: recombinant CD81 large extracellular loop (LEL) fused to maltose binding protein (UniProt P60033)
Experiment: pull-down; MBP–CD81 (3.75 µg) incubated with 450 µl detergent-free lysate of transduced Huh7 or Huh7 FK5.1neo cells, 4 °C, 1 h; captured on amylose resin in TNE buffer, washed; bound material immunoblotted for E2 and core; only the target purified

Q: With “HCV envelope protein E2, genotype 1b, expressed from the C-E1-E2-p7 cassette of baculovirus BacC-p7(1b) (from UniProt O92972 384-746)” as the substance, how does the binding read?
A: binds

Results are given in words; binding and its absence hold for the method and conditions named. Binding seen in cells or lysates may run through a third protein. Binding can be weak; no strength is given.
